Results are given in words; binding and its absence hold for the method and conditions named. Some entries that bind do so weakly or less than the wild type. Tags and fused reporters may be left off the sequences shown.

Assay [1] addresses T1, MST2 (mammalian sterile 20-like kinase 2), Gal4 DNA-binding domain fusion in pGBKT7 (human) (UniProt Q13188).
T1 sequence: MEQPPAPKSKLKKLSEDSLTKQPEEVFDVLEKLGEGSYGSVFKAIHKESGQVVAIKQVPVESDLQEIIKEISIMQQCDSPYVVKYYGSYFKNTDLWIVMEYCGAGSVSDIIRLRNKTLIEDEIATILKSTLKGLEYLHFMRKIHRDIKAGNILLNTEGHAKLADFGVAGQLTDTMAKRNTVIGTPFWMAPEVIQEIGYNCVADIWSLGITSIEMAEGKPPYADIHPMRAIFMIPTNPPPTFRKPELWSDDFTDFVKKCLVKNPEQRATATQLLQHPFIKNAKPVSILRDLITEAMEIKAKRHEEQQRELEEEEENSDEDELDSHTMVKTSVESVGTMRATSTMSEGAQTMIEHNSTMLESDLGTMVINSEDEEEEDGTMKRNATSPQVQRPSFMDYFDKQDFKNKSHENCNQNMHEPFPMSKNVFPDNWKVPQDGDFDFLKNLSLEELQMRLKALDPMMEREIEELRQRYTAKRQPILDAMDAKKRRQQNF
The assay is described as follows: two-hybrid; Matchmaker system, yeast strain PJ69-4A cotransformed; growth on SD minimal medium without adenine and histidine; beta-galactosidase reporter quantified with ONPG at 420 nm.

The target of assay [2] is T2, MST1 (mammalian sterile 20-like kinase 1), Gal4 DNA-binding domain fusion in pGBKT7 (human) (UniProt Q13043).
T2 sequence: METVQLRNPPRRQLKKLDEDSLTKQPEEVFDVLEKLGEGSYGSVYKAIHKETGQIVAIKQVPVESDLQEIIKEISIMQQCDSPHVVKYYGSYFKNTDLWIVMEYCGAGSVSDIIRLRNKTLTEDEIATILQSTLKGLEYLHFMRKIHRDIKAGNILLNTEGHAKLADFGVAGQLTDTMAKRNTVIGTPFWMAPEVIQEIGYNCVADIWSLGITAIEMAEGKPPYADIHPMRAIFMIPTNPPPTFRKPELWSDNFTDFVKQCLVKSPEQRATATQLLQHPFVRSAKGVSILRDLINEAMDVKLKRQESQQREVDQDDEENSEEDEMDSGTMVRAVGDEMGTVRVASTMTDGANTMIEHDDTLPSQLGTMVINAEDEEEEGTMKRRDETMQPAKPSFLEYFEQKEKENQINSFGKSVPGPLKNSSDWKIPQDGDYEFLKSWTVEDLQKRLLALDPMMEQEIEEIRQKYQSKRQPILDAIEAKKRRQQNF
Described as above.

B1: RASSF1A (Ras association domain family 1A), Gal4 activation domain fusion in pGADT7 (protein, UniProt Q9NS23-2 1-340)
chain: MSGEPELIELRELAPAGRAGKGRTRLERANALRIARGTACNPTRQLVPGRGHRFQPAGPATHTWCDLCGDFIWGVVRKGLQCAHCKFTCHYRCRALVCLDCCGPRDLGWEPAVERDTNVDEPVEWETPDLSQAEIEQKIKEYNAQINSNLFMSLNKDGSYTGFIKVQLKLVRPVSVPSSKKPPSLQDARRGPGRGTSVRRRTSFYLPKDAVKHLHVLSRTRAREVIEALLRKFLVVDDPRKFALFERAERHGQVYLRKLLDDEQPLRLRLLAGPSDKALSFVLKENDSGEVNWDAFSMPELHNFLRILQREEEEHLRQILQKYSYCRQKIQEALHACPLG
B1: the binding entry in assay [1] and in assay [2] was “binds” in each case.

B2: RASSF1AΔSARAH, Gal4 activation domain fusion in pGADT7 (protein, UniProt Q9NS23-2)
chain: MSGEPELIELRELAPAGRAGKGRTRLERANALRIARGTACNPTRQLVPGRGHRFQPAGPATHTWCDLCGDFIWGVVRKGLQCAHCKFTCHYRCRALVCLDCCGPRDLGWEPAVERDTNVDEPVEWETPDLSQAEIEQKIKEYNAQINSNLFMSLNKDGSYTGFIKVQLKLVRPVSVPSSKKPPSLQDARRGPGRGTSVRRRTSFYLPKDAVKHLHVLSRTRAREVIEALLRKFLVVDDPRKFALFERAERHGQVYLRKLLDDEQPLRLRLLAGPSDKALSFVLKENDSGPLG
Regarding B2, the binding entry in assay [1] and in assay [2] was “no binding” in each case.

The record behind these values is publication PMC3337622.
